# The other results are listed elsewhere or left out. Most values lie at the level of the controls, where differences are scatter.
# By UniProt entry, the sequences of proteins in these tests, tags left out. Where a name states a change or a piece, a line headed by the entry shows the natural chain unless it says otherwise.
# UniProt Q9WVD4: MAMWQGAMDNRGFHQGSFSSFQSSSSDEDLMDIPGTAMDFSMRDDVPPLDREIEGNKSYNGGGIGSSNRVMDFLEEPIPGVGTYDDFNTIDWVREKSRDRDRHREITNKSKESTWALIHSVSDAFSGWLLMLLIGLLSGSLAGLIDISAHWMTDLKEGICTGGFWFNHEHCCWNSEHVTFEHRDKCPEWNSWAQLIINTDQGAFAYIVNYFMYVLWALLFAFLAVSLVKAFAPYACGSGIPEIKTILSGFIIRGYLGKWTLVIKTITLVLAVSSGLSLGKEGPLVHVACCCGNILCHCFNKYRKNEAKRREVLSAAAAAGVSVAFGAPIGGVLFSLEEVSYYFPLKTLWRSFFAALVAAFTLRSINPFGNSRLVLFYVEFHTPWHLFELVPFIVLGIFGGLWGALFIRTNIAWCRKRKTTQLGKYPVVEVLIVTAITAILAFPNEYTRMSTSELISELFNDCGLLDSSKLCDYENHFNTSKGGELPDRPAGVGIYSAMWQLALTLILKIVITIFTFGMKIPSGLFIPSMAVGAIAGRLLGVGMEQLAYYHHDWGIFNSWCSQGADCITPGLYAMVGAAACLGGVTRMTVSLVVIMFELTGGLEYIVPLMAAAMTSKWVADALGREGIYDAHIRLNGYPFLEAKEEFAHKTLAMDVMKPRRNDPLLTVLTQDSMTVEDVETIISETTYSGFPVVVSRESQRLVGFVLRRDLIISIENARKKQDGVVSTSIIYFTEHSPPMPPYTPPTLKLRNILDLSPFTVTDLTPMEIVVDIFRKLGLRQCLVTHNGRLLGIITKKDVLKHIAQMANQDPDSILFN
# UniProt Q9Z0S1: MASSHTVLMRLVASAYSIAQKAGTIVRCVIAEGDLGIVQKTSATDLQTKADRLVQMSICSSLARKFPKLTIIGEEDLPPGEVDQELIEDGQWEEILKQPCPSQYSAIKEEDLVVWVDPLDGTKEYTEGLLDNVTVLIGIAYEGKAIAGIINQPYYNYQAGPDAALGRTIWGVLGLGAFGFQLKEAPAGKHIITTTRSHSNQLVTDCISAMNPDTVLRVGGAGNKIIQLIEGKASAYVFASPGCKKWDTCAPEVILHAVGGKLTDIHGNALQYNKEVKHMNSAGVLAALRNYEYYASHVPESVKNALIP
# UniProt Q9Z2C5: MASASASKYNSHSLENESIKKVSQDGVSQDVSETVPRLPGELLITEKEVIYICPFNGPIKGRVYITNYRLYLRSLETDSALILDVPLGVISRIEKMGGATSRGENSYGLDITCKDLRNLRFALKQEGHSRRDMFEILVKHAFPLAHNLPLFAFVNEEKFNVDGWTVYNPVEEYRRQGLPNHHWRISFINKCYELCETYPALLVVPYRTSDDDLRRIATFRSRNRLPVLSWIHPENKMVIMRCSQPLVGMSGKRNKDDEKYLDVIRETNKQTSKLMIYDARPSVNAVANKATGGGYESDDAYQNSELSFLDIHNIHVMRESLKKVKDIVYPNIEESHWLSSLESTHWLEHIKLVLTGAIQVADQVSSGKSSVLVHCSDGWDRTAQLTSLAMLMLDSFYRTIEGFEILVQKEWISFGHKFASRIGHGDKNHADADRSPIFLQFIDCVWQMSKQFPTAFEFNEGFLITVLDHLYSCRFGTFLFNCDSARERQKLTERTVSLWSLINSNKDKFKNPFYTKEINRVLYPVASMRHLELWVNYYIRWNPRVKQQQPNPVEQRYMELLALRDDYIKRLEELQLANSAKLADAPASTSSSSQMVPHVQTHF
# UniProt Q9QZD9, whole entry: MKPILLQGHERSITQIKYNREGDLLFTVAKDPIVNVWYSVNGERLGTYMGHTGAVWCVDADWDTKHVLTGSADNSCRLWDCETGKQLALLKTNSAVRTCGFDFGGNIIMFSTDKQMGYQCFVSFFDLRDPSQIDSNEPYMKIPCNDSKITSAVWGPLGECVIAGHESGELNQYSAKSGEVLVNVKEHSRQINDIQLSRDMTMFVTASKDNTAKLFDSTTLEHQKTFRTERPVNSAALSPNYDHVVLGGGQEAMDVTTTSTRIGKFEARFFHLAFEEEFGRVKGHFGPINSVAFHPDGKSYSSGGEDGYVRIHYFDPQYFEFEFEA
# UniProt Q9QYP6, whole entry: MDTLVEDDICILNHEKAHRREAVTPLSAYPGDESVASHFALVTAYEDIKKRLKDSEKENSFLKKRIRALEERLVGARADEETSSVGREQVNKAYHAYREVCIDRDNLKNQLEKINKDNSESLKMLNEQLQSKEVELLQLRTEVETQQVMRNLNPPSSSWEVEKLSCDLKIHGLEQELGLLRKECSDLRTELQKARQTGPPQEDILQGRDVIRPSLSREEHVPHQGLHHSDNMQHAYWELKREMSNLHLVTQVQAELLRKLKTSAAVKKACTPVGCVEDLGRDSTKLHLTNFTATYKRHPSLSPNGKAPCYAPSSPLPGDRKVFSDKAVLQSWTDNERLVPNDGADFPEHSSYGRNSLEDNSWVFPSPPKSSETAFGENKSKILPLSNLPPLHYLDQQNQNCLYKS
# UniProt Q9WV02: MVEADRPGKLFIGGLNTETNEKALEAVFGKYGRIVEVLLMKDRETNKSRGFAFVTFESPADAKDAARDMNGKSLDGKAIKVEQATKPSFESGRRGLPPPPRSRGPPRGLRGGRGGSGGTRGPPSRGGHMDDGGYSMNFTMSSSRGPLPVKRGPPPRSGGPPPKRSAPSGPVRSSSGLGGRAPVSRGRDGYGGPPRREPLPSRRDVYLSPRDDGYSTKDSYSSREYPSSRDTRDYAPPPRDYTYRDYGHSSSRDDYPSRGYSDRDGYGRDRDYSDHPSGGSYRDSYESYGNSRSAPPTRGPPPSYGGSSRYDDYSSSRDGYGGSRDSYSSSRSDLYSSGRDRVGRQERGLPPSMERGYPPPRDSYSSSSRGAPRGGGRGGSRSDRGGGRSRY
# UniProt Q9Z0R6: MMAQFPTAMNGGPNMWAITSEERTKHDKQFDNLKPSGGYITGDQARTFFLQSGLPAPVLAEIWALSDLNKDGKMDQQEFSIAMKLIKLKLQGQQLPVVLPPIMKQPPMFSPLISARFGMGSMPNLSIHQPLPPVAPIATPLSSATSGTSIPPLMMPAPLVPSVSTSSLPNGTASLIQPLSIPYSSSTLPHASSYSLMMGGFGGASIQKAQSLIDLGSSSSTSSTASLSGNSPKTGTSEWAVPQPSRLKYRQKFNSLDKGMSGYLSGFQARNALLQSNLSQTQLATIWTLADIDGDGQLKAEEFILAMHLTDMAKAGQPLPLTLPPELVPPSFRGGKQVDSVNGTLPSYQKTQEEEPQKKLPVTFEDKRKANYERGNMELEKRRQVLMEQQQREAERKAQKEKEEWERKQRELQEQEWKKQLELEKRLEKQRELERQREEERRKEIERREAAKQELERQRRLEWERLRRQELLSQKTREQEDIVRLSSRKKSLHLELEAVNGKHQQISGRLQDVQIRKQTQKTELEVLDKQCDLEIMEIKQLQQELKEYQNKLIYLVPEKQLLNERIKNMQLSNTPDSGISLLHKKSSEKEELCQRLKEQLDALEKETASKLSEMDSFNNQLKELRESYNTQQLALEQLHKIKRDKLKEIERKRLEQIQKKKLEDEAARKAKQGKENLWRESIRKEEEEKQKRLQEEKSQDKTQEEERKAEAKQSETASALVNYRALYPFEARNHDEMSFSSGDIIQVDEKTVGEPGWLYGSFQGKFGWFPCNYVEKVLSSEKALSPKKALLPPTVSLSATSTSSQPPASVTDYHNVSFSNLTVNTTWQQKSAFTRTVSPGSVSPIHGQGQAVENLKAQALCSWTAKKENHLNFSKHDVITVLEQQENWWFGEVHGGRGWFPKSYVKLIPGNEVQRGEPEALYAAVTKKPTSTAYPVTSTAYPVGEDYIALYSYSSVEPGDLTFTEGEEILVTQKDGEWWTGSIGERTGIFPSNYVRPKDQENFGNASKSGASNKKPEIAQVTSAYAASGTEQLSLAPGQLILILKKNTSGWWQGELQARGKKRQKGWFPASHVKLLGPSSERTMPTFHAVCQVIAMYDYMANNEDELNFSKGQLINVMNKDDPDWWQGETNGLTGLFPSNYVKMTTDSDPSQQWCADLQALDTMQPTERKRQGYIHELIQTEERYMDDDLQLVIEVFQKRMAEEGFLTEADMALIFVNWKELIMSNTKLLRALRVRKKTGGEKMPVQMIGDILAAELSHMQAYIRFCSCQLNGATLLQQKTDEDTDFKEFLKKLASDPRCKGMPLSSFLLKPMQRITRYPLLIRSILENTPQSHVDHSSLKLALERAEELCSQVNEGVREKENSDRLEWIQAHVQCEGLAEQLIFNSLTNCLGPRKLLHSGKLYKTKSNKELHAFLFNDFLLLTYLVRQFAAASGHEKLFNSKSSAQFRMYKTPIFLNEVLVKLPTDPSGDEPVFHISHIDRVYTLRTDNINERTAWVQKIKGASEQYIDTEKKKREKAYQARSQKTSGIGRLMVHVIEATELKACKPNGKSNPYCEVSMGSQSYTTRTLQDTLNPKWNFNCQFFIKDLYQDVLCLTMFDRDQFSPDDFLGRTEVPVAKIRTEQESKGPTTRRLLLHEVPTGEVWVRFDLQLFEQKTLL
# UniProt Q9WUA2: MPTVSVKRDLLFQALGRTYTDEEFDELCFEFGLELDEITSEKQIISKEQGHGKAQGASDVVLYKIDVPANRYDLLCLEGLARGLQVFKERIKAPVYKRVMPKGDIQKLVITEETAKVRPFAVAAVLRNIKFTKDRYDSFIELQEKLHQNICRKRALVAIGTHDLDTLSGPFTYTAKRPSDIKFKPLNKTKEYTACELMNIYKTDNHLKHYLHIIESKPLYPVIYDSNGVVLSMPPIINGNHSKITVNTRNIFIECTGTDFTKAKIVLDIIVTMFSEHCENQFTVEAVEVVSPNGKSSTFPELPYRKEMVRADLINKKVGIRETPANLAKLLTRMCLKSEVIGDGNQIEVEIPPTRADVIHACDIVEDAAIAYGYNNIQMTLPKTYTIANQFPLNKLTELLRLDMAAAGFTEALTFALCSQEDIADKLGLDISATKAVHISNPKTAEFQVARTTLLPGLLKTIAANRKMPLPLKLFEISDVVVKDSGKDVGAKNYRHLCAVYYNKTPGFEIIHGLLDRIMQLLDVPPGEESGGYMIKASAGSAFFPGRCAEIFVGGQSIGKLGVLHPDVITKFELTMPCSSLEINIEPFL
# UniProt Q9Z0V7: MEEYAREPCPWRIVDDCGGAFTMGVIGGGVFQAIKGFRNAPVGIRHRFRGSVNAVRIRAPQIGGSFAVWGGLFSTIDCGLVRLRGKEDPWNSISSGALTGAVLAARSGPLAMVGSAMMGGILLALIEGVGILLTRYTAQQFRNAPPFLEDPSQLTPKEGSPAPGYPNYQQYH
# UniProt Q9Z2K1: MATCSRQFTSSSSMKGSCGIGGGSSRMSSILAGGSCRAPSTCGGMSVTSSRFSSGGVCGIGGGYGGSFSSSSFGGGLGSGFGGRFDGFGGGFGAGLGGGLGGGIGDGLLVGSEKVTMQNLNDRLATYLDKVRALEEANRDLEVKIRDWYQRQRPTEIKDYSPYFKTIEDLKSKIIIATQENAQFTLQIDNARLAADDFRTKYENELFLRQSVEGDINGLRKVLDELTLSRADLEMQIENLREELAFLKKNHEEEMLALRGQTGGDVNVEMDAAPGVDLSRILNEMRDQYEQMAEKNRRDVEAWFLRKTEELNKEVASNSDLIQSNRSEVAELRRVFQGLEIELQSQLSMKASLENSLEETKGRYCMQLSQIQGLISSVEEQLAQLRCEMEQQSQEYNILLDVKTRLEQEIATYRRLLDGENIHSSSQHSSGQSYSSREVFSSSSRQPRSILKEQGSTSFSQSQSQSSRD
# UniProt Q9R059: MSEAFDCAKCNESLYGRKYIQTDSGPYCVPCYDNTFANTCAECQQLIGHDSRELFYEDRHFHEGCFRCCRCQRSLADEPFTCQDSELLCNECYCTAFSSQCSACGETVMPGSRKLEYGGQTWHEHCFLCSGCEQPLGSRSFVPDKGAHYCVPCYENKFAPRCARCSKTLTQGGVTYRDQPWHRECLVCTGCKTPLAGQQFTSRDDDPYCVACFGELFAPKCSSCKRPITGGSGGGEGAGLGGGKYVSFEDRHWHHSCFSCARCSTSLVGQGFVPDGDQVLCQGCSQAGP
# UniProt Q9Z2N8, whole entry: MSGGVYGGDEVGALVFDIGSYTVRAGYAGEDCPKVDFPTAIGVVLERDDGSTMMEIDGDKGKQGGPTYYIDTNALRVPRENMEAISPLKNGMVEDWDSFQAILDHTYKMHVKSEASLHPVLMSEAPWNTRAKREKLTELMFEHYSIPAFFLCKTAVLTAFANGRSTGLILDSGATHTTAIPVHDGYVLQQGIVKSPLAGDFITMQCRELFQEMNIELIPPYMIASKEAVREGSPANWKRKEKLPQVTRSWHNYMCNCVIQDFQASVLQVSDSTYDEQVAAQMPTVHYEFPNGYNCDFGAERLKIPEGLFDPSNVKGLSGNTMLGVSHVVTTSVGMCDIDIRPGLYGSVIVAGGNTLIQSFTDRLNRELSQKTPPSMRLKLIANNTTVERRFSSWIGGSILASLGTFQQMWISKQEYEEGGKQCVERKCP
# Compound: CN[C@@H]1C[C@H]2O[C@@](C)([C@@H]1OC)n1c3ccccc3c3c4c(c5c6ccccc6n2c5c31)C(=O)NC4 [staurosporine]
# Assay: log2 fold change of pooled soluble protein (PISA), ligand vs vehicle (log2 ratio); higher = more thermally stabilized
# Conditions: ligand concentration: 20 uM; assay format: PISA pool 52.9/55.5/58.6 C
row,Target,log2 fold change of pooled soluble protein
1,UniProt Q9Z0X1,-0.0037
2,UniProt Q9WVD4,-0.0357
3,UniProt Q9Z1S0,0.124
4,UniProt Q9Z0H7,-0.0879
5,UniProt Q9R0L6,0.329
6,UniProt Q9Z0S1,-0.0527
7,UniProt Q9QYR6,-0.209
8,UniProt Q9R049,-0.0378
9,UniProt Q9Z2C5,-0.0237
10,UniProt Q9Z1P7,-0.0585
11,UniProt Q9Z2R9,0.0692
12,UniProt Q9WTL7,0.0149
13,UniProt Q9QZS2,0.0929
14,UniProt Q9QZE7,-0.113
15,UniProt Q9R0P3,0.0119
16,UniProt Q9Z1F9,-0.0404
17,UniProt Q9QZD9,-0.00102
18,UniProt Q9R062,-0.0984
19,UniProt Q9QYP6,-0.254
20,UniProt Q9WV80,-0.0515

row,Target,log2 fold change of pooled soluble protein
1,UniProt Q9WV02,0.152
2,UniProt Q9WTP7,-0.0753
3,UniProt Q9Z131,0.00055
4,UniProt Q9Z0R6,-0.148
5,UniProt Q9Z0E6,0.144
6,UniProt Q9WUA2,-0.122
7,UniProt Q9WVG6,0.237
8,UniProt Q9Z2U0,-0.0925
9,UniProt Q9Z0V7,0.0432
10,UniProt Q9Z2K1,-0.464
11,UniProt Q9R059,0.0648
12,UniProt Q9Z2I9,-0.113
13,UniProt Q9Z1Q9,-0.166
14,UniProt Q9WTP6,-0.145
15,UniProt Q9Z1Q5,-0.0671
16,UniProt Q9Z2N8,0.165
17,UniProt Q9Z0F8,0.284
18,UniProt Q9WTL8,-0.304
19,UniProt Q9R060,-0.179

# Part of the list above, as tab-separated lines:
row	Target	log2 fold change of pooled soluble protein
8	UniProt Q9Z2U0	-0.0925
9	UniProt Q9Z0V7	0.0432
10	UniProt Q9Z2K1	-0.464
11	UniProt Q9R059	0.0648
12	UniProt Q9Z2I9	-0.113
13	UniProt Q9Z1Q9	-0.166
14	UniProt Q9WTP6	-0.145
15	UniProt Q9Z1Q5	-0.0671
16	UniProt Q9Z2N8	0.165
